Source: US20220074941A1, “HSP90 COMBINATION THERAPY” (Sloan-Kettering Institute for Cancer Research, priority 2011, published 2022)

Columns and labels:
[1] = system: Hsp90 complexes in K562 cell extract; assay: Nano-LC-MS/MS of PU-beads pull-downs; type: binding; conditions: protein identified in PU-beads pull-down of K562 extract, QSTAR-Elite QTof MS
Procedure: Protein cargo isolated from cell lysate with PU-beads or control-beads was subjected to proteomic analysis by nano liquid chromatography coupled to tandem mass spectrometry (nano LC-MS/MS). Initial protein identification was performed using the Mascot search engine, and was further evaluated using Scaffold Proteome Software (Tables 5a-d).
(§1) Lysates prepared as mentioned above were first pre-cleaned by incubation with control beads overnight at 4° C. […] Beads were washed with lysis buffer, proteins eluted by boiling in 2% SDS, separated on a denaturing gel and Coomassie stained according to manufacturer's procedure (Biorad). […] Analyses of the batch purified pools were done using a QSTAR-Elite hybrid quadrupole time-of-flight mass spectrometer (QTof MS) (AB/MDS Sciex), equipped with a nano spray ion source. Peptide mixtures (in 20 μL) are loaded onto a trapping guard column (0.3×5-mm PepMap C18 100 cartridge from LC Packings) using an Eksigent nano MDLC system (Eksigent Technologies, Inc) at a flow rate of 20 μL/min. […] Electrospray ionization (ESI) needle voltage was set at about 1800 V. The mass analyzer is operated in automatic, data-dependent MS/MS acquisition mode, with the threshold set to 10 counts per second of doubly or triply charged precursor ions selected for fragmentation scans. Survey scans of 0.25 sec are recorded from 400 to 1800 amu; up to 3 MS/MS scans are then collected sequentially for the selected precursor ions, recording from 100 to 1800 amu. The collision energy is automatically adjusted in accordance with the m/z value of the precursor ions selected for MS/MS. Selected precursor ions are excluded from repeated selection for 60 sec after the end of the corresponding fragmentation duty cycle. […] One missed tryptic cleavage site was allowed, precursor ion mass tolerance=0.4 Da fragment ion mass tolerance=0.4 Da, protein modifications were allowed for Met-oxide, Cys-acrylamide and N-terminal acetylation. MudPit scoring was typically applied with ‘require bold red’ activated, and using significance threshold score p<0.05. Unique peptide counts (or ‘spectral counts’) and percent sequence coverages for all identified proteins were exported to Scaffold Proteome Software (version 2_06_01, www.proteomesoftware.com) for further bioinformatic analysis (Table 5a). Using output from Mascot, Scaffold validates, organizes, and interprets mass spectrometry data, allowing more easily to manage large amounts of data, to compare samples, and to search for protein modifications.

[2] = system: Hsp90 complexes in Mia-PaCa-2 cell extract; assay: Nano-LC-MS/MS of PU-beads pull-downs; type: binding, human; conditions: protein identified in PU-beads pull-down of Mia-Paca 2 extract; QSTAR-Elite QTof MS
Procedure: as §1

Substance	Number of Assigned Spectra, K562 Prep 1 [1]	Number of Assigned Spectra, K562 Prep 2 [1]	Number of Assigned Spectra, Mia-Paca 2 [2]
FERMT3	8	0	0
GRB2	5	1	2
HDAC1	10	11	1
HDAC2	2	3	1
HDAC6	4	6	2
HIST1H1C	1	0	7
HSP90AA1	563	2018	1514
HSP90AB1	300	1208	578
ILF2	8	11	18
IQGAP2	18	21	1
KHDRBS1	8	15	2
KIAA1967	17	23	3
LGALS3	0	0	9
MAP3K4; MEKK4	3	7	0
MAPK1; ERK2	23	5	14
MAPK14; p38	1	0	0
MTOR; FRAP	43	14	13
NCOR1	11	13	1
NCOR2	8	5	2
NDC80	13	4	0
NONO	0	0	4
NPM1	8	4	49
NSUN2	11	8	5
PI4KA	15	4	0
PIK3R4; VPS15	8	9	4
PLK1	3	0	0

Substance	Number of Assigned Spectra, K562 Prep 1 [1]	Number of Assigned Spectra, K562 Prep 2 [1]	Number of Assigned Spectra, Mia-Paca 2 [2]
PPP2R5E	0	0	2
PRKAG1	10	0	1
PRMT6	2	0	0
PTK2B	2	0	0
PTPN23	8	8	2
RIF1	2	0	2
RNF213	12	49	16
RPS6KA1	6	1	0
RPS6KA3	13	10	3
RPTOR	7	3	2
SAR1A	3	1	1
SMG1	1	9	0
SQSTM1	3	5	1
STAT3	15	4	6
STRAP	13	0	4
Sin1; MAPKAP1	2	0	0
TBK1	10	0	0
TFRC	25	7	0
TLN1	12	12	0
TNKS1BP1	23	79	12
TP63	0	0	3
WRAP53	3	0	0
YWHAE	13	1	13
YWHAQ	0	0	4
hVps34; PIK3C3	5	1	1
